Paper doi:10.1101/2025.01.09.631668
These are yes or no findings as the source states them, for the method shown. For some assays here: In cells and extracts the contact can be indirect. Some binding calls cover weakened binding; strength is not graded here. Sequences can lack the tags named with a protein.

T1: HIGH OSMOTIC STRESS GENE EXPRESSION 5 (HOS5), YFP-fragment fusion for BiFC (Arabidopsis thaliana) (UniProt Q8W4B1)
T1 sequence: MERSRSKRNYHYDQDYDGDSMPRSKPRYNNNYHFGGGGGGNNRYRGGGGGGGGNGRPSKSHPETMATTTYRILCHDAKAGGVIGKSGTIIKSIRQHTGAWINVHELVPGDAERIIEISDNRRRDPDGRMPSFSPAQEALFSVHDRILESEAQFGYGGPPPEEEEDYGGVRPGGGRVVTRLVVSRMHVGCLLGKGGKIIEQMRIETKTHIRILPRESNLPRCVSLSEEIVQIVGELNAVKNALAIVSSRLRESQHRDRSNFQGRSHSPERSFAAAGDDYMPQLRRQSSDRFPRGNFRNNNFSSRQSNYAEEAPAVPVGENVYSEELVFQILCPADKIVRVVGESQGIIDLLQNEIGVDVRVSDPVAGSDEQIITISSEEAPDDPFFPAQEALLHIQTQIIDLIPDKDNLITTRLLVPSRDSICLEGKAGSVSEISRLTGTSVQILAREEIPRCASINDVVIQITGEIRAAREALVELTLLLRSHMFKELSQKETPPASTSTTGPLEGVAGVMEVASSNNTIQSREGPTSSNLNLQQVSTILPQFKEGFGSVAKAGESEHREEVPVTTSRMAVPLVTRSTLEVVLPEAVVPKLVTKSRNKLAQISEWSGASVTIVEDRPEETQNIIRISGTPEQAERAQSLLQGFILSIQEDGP

T2: HIGH OSMOTIC STRESS GENE EXPRESSION 5 (HOS5), yeast two-hybrid fusion (Arabidopsis thaliana) (UniProt Q8W4B1)
T2 sequence: T1 sequence

B1: FLOWERING LOCUS K (FLK), YFP-fragment fusion for BiFC (protein, UniProt Q9SR13 1-577)
chain: MAEAEDQQNFVAHNGDQVPDQGSDELHNGLPYQVHDETLVHQPYEVEDPILEPQQYEVPDPTLEPQQYEVPDQTLEPQQYEVDDQLEYHQYQLQDQANEDVQDHSQDDLQYQPQNQEQFQLQDEAHDQAQYQAQGDVQDHNGDEVQDKVEDEEGIPEHLESLQKSEPEEDATVGGEEKRWPGWPGETVFRMLVPAQKVGSIIGRKGDVIKKIVEETRARIKILDGPPGTTERAVMVSGKEEPESSLPPSMDGLLRVHMRIVDGLDGEASQAPPPSKVSTRLLVPASQAGSLIGKQGGTVKAIQEASACIVRVLGSEDLPVFALQDDRVVEVVGEPTSVHRALELIASHLRKFLVDRSIIPFFENQMQKPTRQMDHMPPPHQSWGPPQGHAPSVGGGGYGHNPPPYMQPPPRHDSYYPPPEMRQPPMEKQPHQGISAYGREPPMNVHVSSAPPMVAQQVTQQMQIPLSYADAVIGTSGSNISYTRRLSGATVTIQETRGVPGEMTVEVSGTGSQVQTAVQLIQNFMAEAGAPAPAQPQTVAPEQQGYNPYATHGSVYAAAPTNPPGGYATDYSSGYGY
B2: FLOWERING LOCUS K (FLK), yeast two-hybrid fusion (protein, UniProt Q9SR13 1-577)
chain: B1 chain

How the values were obtained:
[1] = target: T1, HIGH OSMOTIC STRESS GENE EXPRESSION 5 (HOS5), YFP-fragment fusion for BiFC (Arabidopsis thaliana); assay: split reporter
[2] = target: T2, HIGH OSMOTIC STRESS GENE EXPRESSION 5 (HOS5), yeast two-hybrid fusion (Arabidopsis thaliana); assay: two-hybrid

Row | Binder | binding [1] | binding [2]
1 | B1 | binds | –
2 | B2 | – | binds
